The target of experiment [1] is T1, PagP (untagged construct) (E. coli) (UniProt P37001).
T1 sequence: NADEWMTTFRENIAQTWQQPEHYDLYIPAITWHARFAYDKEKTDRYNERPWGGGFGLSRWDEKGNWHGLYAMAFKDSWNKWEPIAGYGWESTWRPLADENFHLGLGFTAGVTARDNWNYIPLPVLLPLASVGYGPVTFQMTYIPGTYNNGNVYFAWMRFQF
Nature of the experiment: SEC; analytical gel filtration on Superdex 75 10/300 GL in 50 mM glycine, pH 9.5; 10 μM PagP with 60 μM SurA, or 2 μM PagP with 6 μM lysozyme, incubated 5 min at room temperature in 0.24 M urea, no lipid; both purified. For orientation: In gel filtration, larger molecules generally elute earlier.

The chains behind the UniProt entries cited, without tags or fusion partners. Residues count along the entry.
UniProt P0ABZ6, residues 21-428: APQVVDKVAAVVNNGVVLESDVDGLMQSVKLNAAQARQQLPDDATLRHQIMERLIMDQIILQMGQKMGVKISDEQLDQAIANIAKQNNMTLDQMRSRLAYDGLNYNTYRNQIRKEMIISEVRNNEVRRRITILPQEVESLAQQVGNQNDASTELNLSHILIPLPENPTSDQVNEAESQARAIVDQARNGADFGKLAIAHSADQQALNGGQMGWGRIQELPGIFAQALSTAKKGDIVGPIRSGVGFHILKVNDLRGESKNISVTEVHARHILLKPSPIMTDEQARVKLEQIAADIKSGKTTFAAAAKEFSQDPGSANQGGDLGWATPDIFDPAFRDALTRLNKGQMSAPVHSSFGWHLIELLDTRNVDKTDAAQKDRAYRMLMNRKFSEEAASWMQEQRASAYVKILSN

For experiment [2], the target named is T2, His-tagged PagP (E. coli) (UniProt P37001).
T2 sequence: T1 sequence
Nature of the experiment: pull-down; HT PagP (10 μM) immobilised on Ni-Sepharose resin; 10 μM lysozyme, SurA or Skp trimers added for 1 h in 50 mM glycine, pH 9.5, 5 mM imidazole; washed with 20 mM imidazole; eluted with 5 M urea and 500 mM imidazole; bound and unbound fractions analysed by SDS-PAGE; both purified.

Results are given in words; binding and its absence hold for the method and conditions named. Where a sequence is shown, tags or fusion partners need not be part of it.

Turning to SurA (from UniProt P0ABZ6 21-428), the binding result in experiment [1] was “no binding (tested: 60 μM SurA, 10 μM PagP)”; in experiment [2] it was “no binding (tested: 10 μM SurA, 10 μM HT PagP)”.

The values above are taken from paper PMC3906610.
